The target of this assay is TNFR2-His-Fc (UniProt P20333). Put plainly: ELISA, IgG coated, 100 nM TNFR2-His-Fc, anti His-HRP. Background: An ELISA detects its analyte on a solid surface through an enzyme-linked reagent.

Sequences of proteins named here, by UniProt entry; tags and fusion partners are left off. Residues count along the entry.
UniProt P20333, residues 23-257: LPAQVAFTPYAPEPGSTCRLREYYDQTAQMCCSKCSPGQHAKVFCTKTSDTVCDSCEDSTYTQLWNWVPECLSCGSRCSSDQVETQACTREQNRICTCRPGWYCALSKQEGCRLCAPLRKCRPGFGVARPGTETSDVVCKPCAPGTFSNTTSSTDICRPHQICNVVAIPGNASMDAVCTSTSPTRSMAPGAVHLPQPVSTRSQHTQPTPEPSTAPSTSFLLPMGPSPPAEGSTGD

These are yes or no findings as the source states them, for the method shown. Some entries that bind do so weakly or less than the wild type.

B1: BDG30.114 (antibody, human IgG1, kappa, L234A L235A, V domains shown)
VH: EVQLVQSGPELKKPGASVKVSCKGSGYTFTDLGMNWVRQAPGQGLEWMGWINTQTGEPFYADDFKGRFVFSLDTSVSTAYLQISSLKAEDTAVYFCARDHPLGLDYWGQGTLVTVSS
VL: DIQVTQSPSSLSASVGDRVTITCITSQSVDVNGVSYLNWYQQKPGKVPKFLIYKASILRSGVPSRFSGSGSGTDFTLTISSLQPEDVATYYCQQSREDPYTFGQGTKVEIKR
As to B1, the binding entry was “binds”.

Source of the values: patent US20230167188A1.
